Experimental findings from paper doi:10.1101/2023.09.07.556670 are described below.

These are yes or no findings as the source states them, for the method shown. Binding seen in cells or lysates may run through a third protein. Here binding means that the protein was enriched with, or labelled near, the bait; the list need not be complete.

In the assay the target is FLAG-tagged full-length NS5 of tick-borne encephalitis virus (TBEV) (tick-borne encephalitis virus (TBEV)) (UniProt Q01299). Kind of assay: affinity purification with mass spectrometry.
ATRX (from UniProt P46100 1-2492): the binding result is reported as “binds”.
As to SMARCA4 (from UniProt P51532 1-1647), the binding entry is on record as “binds”.
In the case of “endogenous TYK2 (from UniProt P29597 1-1187)”, the binding entry is on record as “binds”.
